This passage reports binding results from publication PMC5071832.

Amino acid sequences for entries named in this document (tags omitted). Residues count along the entry.
UniProt P48775, residues 18-389: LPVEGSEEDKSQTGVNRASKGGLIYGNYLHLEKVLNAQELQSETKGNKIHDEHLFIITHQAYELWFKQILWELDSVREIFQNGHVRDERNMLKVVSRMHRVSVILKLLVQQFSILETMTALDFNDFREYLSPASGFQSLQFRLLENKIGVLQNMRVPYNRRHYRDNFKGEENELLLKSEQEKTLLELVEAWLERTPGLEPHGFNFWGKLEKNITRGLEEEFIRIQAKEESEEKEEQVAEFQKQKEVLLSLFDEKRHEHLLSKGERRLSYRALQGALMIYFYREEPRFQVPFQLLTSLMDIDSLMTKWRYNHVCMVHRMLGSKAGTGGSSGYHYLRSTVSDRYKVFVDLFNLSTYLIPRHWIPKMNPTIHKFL

This experiment deals with human tryptophan 2,3-dioxygenase (human) (UniProt P48775). The experiment can be described thus: crystal structure; ferrous hTDO (45 mg/ml) with 10 mM L-Trp, under-oil microbatch, anaerobic, 18 °C; precipitant 50 mM sodium citrate pH 5.6, 5% PEG 3350, 2% Tacsimate pH 5; one crystal mounted anaerobically, one soaked overnight in O2-saturated solution; four subunits (A-D) form the tetramer; both purified.

No constants are given. Whether binding was seen depends on the method and setting. Some binding calls cover weakened binding; strength is not graded here.

For “human tryptophan 2,3-dioxygenase (from UniProt P48775 18-389) (enzyme)”, the binding result was “binds”.
